# Primary screen of a compound library

Values are the deposited “Percent Effect”, in %. The controls that fix the scale are not given in the record; negative values are as filed. Compounds were drawn at random from those tested, without regard to their results. Two or more numbers in one place are separate tests of the same structure; such repeats can differ widely.

Mtb cholesterol medium: 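Whole-cell growth test on Mycobacterium tuberculosis, read after 4 days in a medium based on cholesterol and the lipid DPPC; the read-out is not stated. Tested at 50 µM. Higher reads as more growth inhibition (inferred: compounds with an IC50 in retests scored well above the rest). Size under these conditions: about 69,000 compounds, about 370 of them at 50% or above in at least one test.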
Mtb glucose medium: 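Phenotypic screen: M. tuberculosis growth, glucose 7H9 medium, 3 days; the read-out is not stated. Compounds at 50 µM. The record gives no direction; compounds that gave an IC50 in retests scored well above the rest, so higher reads as more growth inhibition. Of about 69,000 compounds tested this way, about 760 (1.1%) reached 50% or more in at least one test.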

Compound,Mtb cholesterol medium,Mtb glucose medium
NC(=O)CN1CCCC(C(=O)N2CCC(O)(c3ccccc3)CC2)C1 (stereo not given),-27.3%,1.258% and -18.58%
O=C(O)C(F)(F)F.[H][C@@]12CCN(CCc3ccccc3)C[C@]1([H])[C@H](C(=O)N1CCCC1)CCO2,-17.95%,-26.23%
O=C(O)C(F)(F)F.[H][C@]12CCN(C(=O)CC3CC3)[C@@]1([H])CC[C@H](COCc1cccc(C)n1)O2,22.72%,-3.846%
CCc1nnc(NC(=O)c2ccc(C3CCCN3CC(C)C)s2)s1 (stereo not given),0.2508% and -3.894%,34.9%
O=C(CCN1CCCN(c2nccs2)CC1)Nc1ccccc1,-21.58%,-28.67%
O=C(Cc1cccnc1)N1CCC2(CC1)CCN(C1CCOCC1)C2.O=C(O)C(F)(F)F.O=C(O)C(F)(F)F,-19.61%,-23.44%
CCN1CC2(CC1=O)CN(Cc1cnn(C)c1)CCN(C(C)=O)C2.O=C(O)C(F)(F)F (stereo not given),-7.205% and 15.21%,-0.5676%
Cc1cc(Nc2ccc(F)cn2)cc(C2CCCN2)n1 (stereo not given),13.63% and 9.996%,12.05%
O=C(c1cnc2ccc(Cl)cc2c1NCc1ccco1)N1CCCCC1,-6.442%,18.59% and 5.016%
CN(Cc1cc(F)ccc1F)CC(C)(CO)CO,-2.644% and 3.907%,-9.221%
Cc1cc(C(=O)NCC(O)c2c(Cl)cccc2Cl)nn1C (stereo not given),-34.63%,-58.69%
COCC[C@]1(O)CCN(C(=O)CCn2c(C)cccc2=O)C[C@H]1C,-13.57% and -44.28%,-57.1%
COCCN1C(=O)CC[C@]12CC[C@@H](NCc1cccnc1OC)CC2.O=C(O)C(F)(F)F.O=C(O)C(F)(F)F,-13.05%,-26.76% and -3.815%
COc1cccc(CCNC(=O)CCS(=O)(=O)C2CCCC2)c1,-0.3219%,28.02%
CN(Cc1ccccc1)c1ncccc1CNC1CCCC1,16.66%,3.239%
CCCS(=O)(=O)N1CCOC2(CCCN(c3ncc(F)cn3)C2)C1 (stereo not given),7.529%,9.62% and -2.251%
CC(C(=O)NC1CCCCC1)N1CCc2[nH]nc(C(F)(F)F)c2C1 (stereo not given),2.202%,-0.03631% and -7.591%
Cc1ncsc1CCN(C)C(=O)CN1CCOC1=O,-8.641%,-11.83%
C=C(C)COc1ccccc1CN1CCC(NC(C)=O)CC1,-8.252%,-11.7% and -9.655%
COc1cc(CNCCn2cccn2)c2c(c1)CC(C)O2 (stereo not given),-7.317%,0.9896% and 5.77%
CC(C)c1ncc2c(n1)CN(Cc1nc(-c3ccoc3)no1)CC2,-8.657%,-5.527%
Cc1cc(CNC(=O)NC(C)c2ccncc2)no1 (stereo not given),-20.38%,-6.592%
COCC(=O)N1CCc2cccc(S(=O)(=O)N3CCOCC3)c2C1,5.935%,-32.12%
O=C(O)C(F)(F)F.[H][C@@]12CCN(Cc3ccco3)[C@]1([H])CC[C@H](COCC(=O)N(C)C)O2,3.428%,-1.052%
O=C(Nc1ccc(I)cc1C(=O)NCCN1CCOCC1)c1ccco1,-3.371%,23.91% and 22.69%
Cc1ccccc1CN(C)C(C(N)=O)c1ccccc1 (stereo not given),-26.07%,-16.63%
CC(C)N1CCC(N2CCCC(C(=O)NCC3(O)CCCCC3)C2)CC1 (stereo not given),9.368%,1.956%
OCCOc1ccccc1CN1CCCC(O)(CO)C1 (stereo not given),-25.81%,-55.7%
CCc1c(C)[nH]c(C(C)(N)CC)nc1=O.Cl (stereo not given),11.7%,-5.16%
CC(C)OC(=O)N1CCCCC1CCn1cccn1 (stereo not given),11.16%,4.62%
O=C(NCC1(c2ccc(F)cc2)CC1)N1CCC2(CCOC2)C1 (stereo not given),3.456%,-1.736% and 62.04%
COC(=O)N1CCC(Nc2ccc(Cl)c(C#N)n2)C1 (stereo not given),12.8%,0.3325%
CCC[C@H]1CN(CCS(C)(=O)=O)C[C@@H]1NC(=O)c1ccccn1,-7.586%,13.09%
CCc1csc(CCNC(=O)CC2CCN(C(C)C)CC2)n1,-21.69%,-39.44%
N#Cc1cccc(CN(CC(=O)N2CCCC2)CC2CCCO2)c1 (stereo not given),10.01%,21.34%
CCOCC(=O)N1CCC(C2CCN(Cc3ccc(Cl)cc3)C2)CC1 (stereo not given),7.007%,14.8%
CCC1CN(C(=O)COc2ccc(C(=O)NC3CC3)cc2)CCO1 (stereo not given),-30.52%,-3.79% and -33.34%
O=C(CCn1c(C(F)F)cc2cccnc21)NC1CC1,0.6296%,33.84%
COCCC(=O)N1CCC(c2ncncc2-c2ccnc(N)c2)C1 (stereo not given),5.683%,8.496%
CC(C)(C)OC(=O)N1CCN(S(=O)(=O)CCCC#N)C2(CCCCC2)C1,-2.636%,-1.554%
CCn1nc2c(cc1=O)CN(CCCN1CCCC1=O)CC2,-27.63%,-58.71%
O=C(Cc1c[nH]c(=O)[nH]c1=O)N1CCCCC1CCc1ccccc1 (stereo not given),-25.9%,-31.3% and 6.203%
O=C1CC(c2cccnc2)C2(CCN(C(=O)N3CCOCC3)CC2)N1 (stereo not given),-19.44%,-19.33%
O=C(NCCc1ccccn1)N1CCSC2(CCCCC2)C1,-6.159%,26.98%
NC(=O)Nc1ccc(C(=O)NCCn2cccc2)cc1,-5.864%,5.978%
Cc1cncc(C(=O)N2CCCCC2c2nc[nH]n2)c1 (stereo not given),1.233%,-12.94%
COCCn1ccc2cc(NC(=O)N(C)C(C)CSC)ccc21 (stereo not given),4.52%,10.95%
OC1CCCN(CCNc2ncc(Cl)cc2F)C1 (stereo not given),-16.93%,-36.71% and -8.049%
NC(=O)CN1CCC(c2csc(Nc3cnccn3)n2)CC1,6.369% and -2.285%,-3.647%
Cc1nc[nH]c1CN1CCC(CNC(=O)c2cccc3cnccc23)C1 (stereo not given),2.09% and 4.982%,1.843%
CCn1cc(CNc2ccc(N(C)CCOC)cn2)cn1,-21.51%,-68.44%
NC(=O)NC(=O)CCSCc1coc(-c2ccc(F)cc2)n1,-11.03%,-1.585%
CCN1CCC2(CC1)CC(NCc1cccc(C)n1)c1ccccc1O2.O=C(O)C(F)(F)F.O=C(O)C(F)(F)F.O=C(O)C(F)(F)F (stereo not given),-7.403%,17.22%
CCSc1ccccc1C(=O)NCCn1nc(-n2cncn2)ccc1=O,13.82%,10.78%
Cc1nc(O)cc(C2(C)CCCNC2)n1.Cl (stereo not given),-8.091% and 0.4553%,-0.1953%
CC(C)CS(=O)(=O)NC(=O)c1ccc2c(c1)ncn2C,-20.52%,-26.53%
Cc1nccn1CCC1CCNCC1.Cl.Cl,-8.977% and -11.24%,-21.53%
CCOCC1CN(c2ccc(C)nn2)Cc2nn(CC)cc21.O=C(O)C(F)(F)F.O=C(O)C(F)(F)F (stereo not given),2.003%,-3.889% and 8.059%
COCC1CN(C(=O)CC2=CCCCC2)Cc2nnn(CC3CC3)c21 (stereo not given),-25.05%,-24.12%
Cc1oncc1C(=O)N1CCOCC2(CCN(c3ccccn3)C2)C1.O=C(O)C(F)(F)F (stereo not given),-10.46%,-5.651%
Cc1nnc(SC2CCc3ccccc3NC2=O)o1 (stereo not given),1.079%,5.818%
CCc1ncnc2c1CCN(C(=O)Cc1ccccn1)CC2,12.78%,18.26%
COCCNC(=O)Cn1ccc2ccc(F)cc21,-21.65%,4.505% and -1.012%
COc1cc(C2(C(=O)NC3CCN(C4CC4)CC3)CC2)ccc1C,-4.628%,12.32%

Some entries from above, unchanged:

Compound	Mtb cholesterol medium	Mtb glucose medium
CC(C(=O)NC1CCCCC1)N1CCc2[nH]nc(C(F)(F)F)c2C1 (stereo not given)	2.202%	-0.03631% and -7.591%
CCN1CCC2(CC1)CC(NCc1cccc(C)n1)c1ccccc1O2.O=C(O)C(F)(F)F.O=C(O)C(F)(F)F.O=C(O)C(F)(F)F (stereo not given)	-7.403%	17.22%
O=C(c1cnc2ccc(Cl)cc2c1NCc1ccco1)N1CCCCC1	-6.442%	18.59% and 5.016%
O=C(Cc1cccnc1)N1CCC2(CC1)CCN(C1CCOCC1)C2.O=C(O)C(F)(F)F.O=C(O)C(F)(F)F	-19.61%	-23.44%
CCc1csc(CCNC(=O)CC2CCN(C(C)C)CC2)n1	-21.69%	-39.44%
C=C(C)COc1ccccc1CN1CCC(NC(C)=O)CC1	-8.252%	-11.7% and -9.655%

The values are deposited in ChEMBL (CHEMBL3988442, “University of Dundee, Small-Polar-MMV Screening Library” (2021)).